Source: paper doi:10.1101/2020.04.15.042515 (bioRxiv, 2020)
These are yes or no findings as the source states them, for the method shown. In cells and extracts the contact can be indirect. Some binding calls cover weakened binding; strength is not graded here. For some assays here: Sequences can lack the tags named with a protein.

T1: WDR41, wild type, with a GST tag for pull down experiments (human) (UniProt Q9HAD4)
T1 sequence: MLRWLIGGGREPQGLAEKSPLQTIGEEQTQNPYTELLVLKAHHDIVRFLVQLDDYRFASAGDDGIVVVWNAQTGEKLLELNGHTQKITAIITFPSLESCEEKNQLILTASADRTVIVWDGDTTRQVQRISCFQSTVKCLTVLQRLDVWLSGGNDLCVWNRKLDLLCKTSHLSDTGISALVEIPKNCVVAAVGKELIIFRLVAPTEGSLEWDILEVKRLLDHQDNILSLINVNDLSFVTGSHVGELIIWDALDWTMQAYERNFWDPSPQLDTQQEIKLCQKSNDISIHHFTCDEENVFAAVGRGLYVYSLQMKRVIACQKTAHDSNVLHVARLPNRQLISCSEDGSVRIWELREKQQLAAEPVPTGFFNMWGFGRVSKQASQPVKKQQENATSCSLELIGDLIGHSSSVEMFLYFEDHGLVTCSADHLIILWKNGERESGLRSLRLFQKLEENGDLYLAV

T2: C9orf72, wild type, as used in the pull-down experiments (human) (UniProt Q96LT7)
T2 sequence: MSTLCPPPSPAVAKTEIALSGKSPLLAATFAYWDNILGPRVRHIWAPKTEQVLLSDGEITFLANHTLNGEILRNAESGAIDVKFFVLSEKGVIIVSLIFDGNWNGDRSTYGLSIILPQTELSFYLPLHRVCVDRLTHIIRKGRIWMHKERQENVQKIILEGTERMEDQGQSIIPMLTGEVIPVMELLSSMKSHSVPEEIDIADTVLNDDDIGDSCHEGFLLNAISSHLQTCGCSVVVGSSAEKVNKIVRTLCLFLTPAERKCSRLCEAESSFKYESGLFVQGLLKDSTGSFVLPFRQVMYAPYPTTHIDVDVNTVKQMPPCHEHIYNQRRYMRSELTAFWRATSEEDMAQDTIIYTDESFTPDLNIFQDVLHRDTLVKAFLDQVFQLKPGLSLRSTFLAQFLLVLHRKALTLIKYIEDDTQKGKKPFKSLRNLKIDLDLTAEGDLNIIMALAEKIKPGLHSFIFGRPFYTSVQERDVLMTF

B1: SMCR8^M5 (truncation after residue 910K) (domain or fragment, UniProt Q8TEV9 1-910)
chain: MISAPDVVAFTKEEEYEEEPYNEPALPEEYSVPLFPFASQGANPWSKLSGAKFSRDFILISEFSEQVGPQPLLTIPNDTKVFGTFDLNYFSLRIMSVDYQASFVGHPPGSAYPKLNFVEDSKVVLGDSKEGAFAYVHHLTLYDLEARGFVRPFCMAYISADQHKIMQQFQELSAEFSRASECLKTGNRKAFAGELEKKLKDLDYTRTVLHTETEIQKKANDKGFYSSQAIEKANELASVEKSIIEHQDLLKQIRSYPHRKLKGHDLCPGEMEHIQDQASQASTTSNPDESADTDLYTCRPAYTPKLIKAKSTKCFDKKLKTLEELCDTEYFTQTLAQLSHIEHMFRGDLCYLLTSQIDRALLKQQHITNFLFEDFVEVDDRMVEKQESIPSKPSQDRPPSSSLEECPIPKVLISVGSYKSSVESVLIKMEQELGDEEYKEVEVTELSSFDPQENLDYLDMDMKGSISSGESIEVLGTEKSTSVLSKSDSQASLTVPLSPQVVRSKAVSHRTISEDSIEVLSTCPSEALIPDDFKASYPSAINEEESYPDGNEGAIRFQASISPPELGETEEGSIENTPSQIDSSCCIGKESDGQLVLPSTPAHTHSDEDGVVSSPPQRHRQKDQGFRVDFSVENANPSSRDNSCEGFPAYELDPSHLLASRDISKTSLDNYSDTTSYVSSVASTSSDRIPSAYPAGLSSDRHKKRAGQNALKFIRQYPFAHPAIYSLLSGRTLVVLGEDEAIVRKLVTALAIFVPSYGCYAKPVKHWASSPLHIMDFQKWKLIGLQRVASPAGAGTLHALSRYSRYTSILDLDNKTLRCPLYRGTLVPRLADHRTQIKRGSTYYLHVQSMLTQLCSKAFLYTFCHHLHLPTHDKETEELVASRQMSFLKLTLGLVNEDVRVVQYLAELLK
B2: Smith-Magenis syndrome chromosome region, candidate 8 (SMCR8), wild type (protein, UniProt Q8TEV9 1-937)
chain: MISAPDVVAFTKEEEYEEEPYNEPALPEEYSVPLFPFASQGANPWSKLSGAKFSRDFILISEFSEQVGPQPLLTIPNDTKVFGTFDLNYFSLRIMSVDYQASFVGHPPGSAYPKLNFVEDSKVVLGDSKEGAFAYVHHLTLYDLEARGFVRPFCMAYISADQHKIMQQFQELSAEFSRASECLKTGNRKAFAGELEKKLKDLDYTRTVLHTETEIQKKANDKGFYSSQAIEKANELASVEKSIIEHQDLLKQIRSYPHRKLKGHDLCPGEMEHIQDQASQASTTSNPDESADTDLYTCRPAYTPKLIKAKSTKCFDKKLKTLEELCDTEYFTQTLAQLSHIEHMFRGDLCYLLTSQIDRALLKQQHITNFLFEDFVEVDDRMVEKQESIPSKPSQDRPPSSSLEECPIPKVLISVGSYKSSVESVLIKMEQELGDEEYKEVEVTELSSFDPQENLDYLDMDMKGSISSGESIEVLGTEKSTSVLSKSDSQASLTVPLSPQVVRSKAVSHRTISEDSIEVLSTCPSEALIPDDFKASYPSAINEEESYPDGNEGAIRFQASISPPELGETEEGSIENTPSQIDSSCCIGKESDGQLVLPSTPAHTHSDEDGVVSSPPQRHRQKDQGFRVDFSVENANPSSRDNSCEGFPAYELDPSHLLASRDISKTSLDNYSDTTSYVSSVASTSSDRIPSAYPAGLSSDRHKKRAGQNALKFIRQYPFAHPAIYSLLSGRTLVVLGEDEAIVRKLVTALAIFVPSYGCYAKPVKHWASSPLHIMDFQKWKLIGLQRVASPAGAGTLHALSRYSRYTSILDLDNKTLRCPLYRGTLVPRLADHRTQIKRGSTYYLHVQSMLTQLCSKAFLYTFCHHLHLPTHDKETEELVASRQMSFLKLTLGLVNEDVRVVQYLAELLKLHYMQESPGTSHPMLRFDYVPSFLYKI
B3: SMCR8^M4 (protein, UniProt Q8TEV9 1-937)
chain: MISAPDVVAFTKEEEYEEEPYNEPALPEEYSVPLFPFASQGANPWSKLSGAKFSRDFILISEFSEQVGPQPLLTIPNDTKVFGTFDLNYFSLRIMSVDYQASFVGHPPGSAYPKLNFVEDSKVVLGDSKEGAFAYVHHLTLYDLEARGFVRPFCMAYISADQHKIMQQFQELSAEFSRASECLKTGNRKAFAGELEKKLKDLDYTRTVLHTETEIQKKANDKGFYSSQAIEKANELASVEKSIIEHQDLLKQIRSYPHRKLKGHDLCPGEMEHIQDQASQASTTSNPDESADTDLYTCRPAYTPKLIKAKSTKCFDKKLKTLEELCDTEYFTQTLAQLSHIEHMFRGDLCYLLTSQIDRALLKQQHITNFLFEDFVEVDDRMVEKQESIPSKPSQDRPPSSSLEECPIPKVLISVGSYKSSVESVLIKMEQELGDEEYKEVEVTELSSFDPQENLDYLDMDMKGSISSGESIEVLGTEKSTSVLSKSDSQASLTVPLSPQVVRSKAVSHRTISEDSIEVLSTCPSEALIPDDFKASYPSAINEEESYPDGNEGAIRFQASISPPELGETEEGSIENTPSQIDSSCCIGKESDGQLVLPSTPAHTHSDEDGVVSSPPQRHRQKDQGFRVDFSVENANPSSRDNSCEGFPAYELDPSHLLASRDISKTSLDNYSDTTSYVSSVASTSSDRIPSAYPAGLSSDRHKKRAGQNALKFIRQYPFAHPAIYSLLSGRTLVVLGEDEAIVRKLVTALAIFVPSYGCYAKPVKHWASSPLHIMDFQKWKLIGLQRVASPAGAGTLHALSRYSRYGGKGSLDNKTLRCPLYRGTLVPRLADHRTQIKRGSTYYLHVQSMLTQLCSKAFLYTFCHHLHLPTHDKETEELVASRQMSFLKLTLGLVNEDVRVVQYLAELLKLHYMQESPGTSHPMLRFDYVPSFLYKI
B4: SMCR8^M3 (protein, UniProt Q8TEV9 1-937)
chain: MISAPDVVAFTKEEEYEEEPYNEPALPEEYSVPLFPFASQGANPWSKLSGAKFSRDFILISEFSEQVGPQPLLTIPNDTKVFGTFDLNYFSLRIMSVDYQASFVGHPPGSAYPKLNFVEDSKVVLGDSKEGAFAYVHHLTLYDLEARGFVRPFCMAYISADQHKIMQQFQELSAEFSRASECLKTGNRKAFAGELEKKLKDLDYTRTVLHTETEIQKKANDKGFYSSQAIEKANELASVEKSIIEHQDLLKQIRSYPHRKLKGHDLCPGEMEHIQDQASQASTTSNPDESADTDLYTCRPAYTPKLIKAKSTKCFDKKLKTLEELCDTEYFTQTLAQLSHIEHMFRGDLCYLLTSQIDRALLKQQHITNFLFEDFVEVDDRMVEKQESIPSKPSQDRPPSSSLEECPIPKVLISVGSYKSSVESVLIKMEQELGDEEYKEVEVTELSSFDPQENLDYLDMDMKGSISSGESIEVLGTEKSTSVLSKSDSQASLTVPLSPQVVRSKAVSHRTISEDSIEVLSTCPSEALIPDDFKASYPSAINEEESYPDGNEGAIRFQASISPPELGETEEGSIENTPSQIDSSCCIGKESDGQLVLPSTPAHTHSDEDGVVSSPPQRHRQKDQGFRVDFSVENANPSSRDNSCEGFPAYELDPSHLLASRDISKTSLDNYSDTTSYVSSVASTSSDRIPSAYPAGLSSDRHKKRAGQNALKFIRQYPFAHPAIYSLLGGKGSGGLGEDEAIVRKLVTALAIFVPSYGCYAKPVKHWASSPLHIMDFQKWKLIGLQRVASPAGAGTLHALSRYSRYTSILDLDNKTLRCPLYRGTLVPRLADHRTQIKRGSTYYLHVQSMLTQLCSKAFLYTFCHHLHLPTHDKETEELVASRQMSFLKLTLGLVNEDVRVVQYLAELLKLHYMQESPGTSHPMLRFDYVPSFLYKI

Legend:
[1] = target: T1, WDR41, wild type, with a GST tag for pull down experiments (human); assay: pull-down
[2] = target: T2, C9orf72, wild type, as used in the pull-down experiments (human); assay: pull-down

| Binder | binding [1] | binding [2] |
| --- | --- | --- |
| B1 | no binding |  |
| B2 | binds | binds |
| B3 | no binding |  |
| B4 | no binding |  |
